Values of other authors in patent US6509371B1, “Compositions containing Bergamottin for increasing the oral bioavailability of pharmaceutical agents” (Warner-Lambert Company, priority 1997, dated 2003).

Chains of the proteins cited; added tags and fusions are not shown.
UniProt P08684, whole entry: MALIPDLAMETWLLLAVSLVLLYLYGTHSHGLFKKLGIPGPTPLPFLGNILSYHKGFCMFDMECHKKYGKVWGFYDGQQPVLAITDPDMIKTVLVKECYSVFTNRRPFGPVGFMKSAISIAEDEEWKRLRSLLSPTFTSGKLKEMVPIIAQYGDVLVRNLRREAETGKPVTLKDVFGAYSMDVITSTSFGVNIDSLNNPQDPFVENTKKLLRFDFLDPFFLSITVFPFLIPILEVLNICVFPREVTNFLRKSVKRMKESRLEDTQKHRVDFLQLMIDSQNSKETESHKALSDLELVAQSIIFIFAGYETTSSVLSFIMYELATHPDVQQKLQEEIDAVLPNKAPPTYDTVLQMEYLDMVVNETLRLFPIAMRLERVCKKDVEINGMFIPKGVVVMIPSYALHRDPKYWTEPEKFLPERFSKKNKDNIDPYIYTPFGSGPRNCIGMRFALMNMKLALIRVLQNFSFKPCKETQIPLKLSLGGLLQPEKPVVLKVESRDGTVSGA

Assays:
[1] = biological target: P450 3A4 (Homo sapiens, UniProt P08684); settings: in vivo; cited from earlier work
[2] = in vivo; cited from earlier work

Compound: COC(=O)C1=C(C)NC(C)=C(C(=O)OC)C1c1ccccc1[N+](=O)[O-] [Nifedipine]
- Fraction Metabolized [1]: >90%
- Oral Bioavailability [2]: 40-60%
